Where two headings read alike, the source gives them in different places. Part of at least one peptide drawing is inferred or uncertain, most often the ends. Where no end group is shown, it is not given here.
Legend:
[1] = test system: DU145, LnCaP, PC3 and MDA-MB-231 cells; assay: MTT in vitro assay for cell killing, 2 h treatment (Example 2); format: cell-based; settings: PC3, MDA-MB-231, 5-80 μM, FIG. 1
cFOS = cFOS expression in PC3 cells by qRT-PCR; format: cell-based; settings: 33 μM, 2 h; FIG. 3
[2] = test system: PC3 cell tumour xenografts; assay: PC3 cell tumour xenografts in nude mice, intratumoural injection; format: in vivo; settings: for Significance (RTV2) / Significance (RTV3): p value versus PBS controls; for Significance (RTV2) / Growth delay (RTV2): time to RTV2; for Significance (RTV3) / Growth delay (RTV3): time to RTV3; for Growth delay (RTV2) / Growth delay (RTV3): relative to PBS controls; for Mean time to RTV2 / Median time to RTV2: tumour doubling; for Mean time to RTV2 / Median time to RTV2 / Mean time to RTV3 / Median time to RTV3: Balb-c nude mice; for Mean time to RTV3 / Median time to RTV3: tumour tripling
PC3 cells [3] = assay: Annexin V-FITC / PI apoptosis assay by flow cytometry; format: cell-based; settings: 33 μM, 2 h; FIG. 4
DUSP1 protein = DUSP1 protein expression in treated PC3 tumour xenografts by immunohistochemistry; format: in vivo, mice; settings: after intratumoural treatment, brown staining; FIG. 9
PC3 cells [4] = settings: for PC3 2 hr IC50 change relative to HXR9: fold difference in IC50 relative to HXR9, 2 hr; for PC3 96 hr IC50 change relative to HXR9: fold difference in IC50 relative to HXR9, 96 hr; for IC50: PC3 cells, MTT, mean of 3 experiments ± SD
[5] = read-out: PC3 2 hr IC50 (±SD), 2 hr
[6] = read-out: PC3 96 hr IC50 (±SD), 96 hr

Sequence | cell killing compared with HXR9 [1] | cFos expression compared to HXR9 treated cells (cFOS) | cFos expression compared to untreated PC3 cells (cFOS) | growth retardation of PC3 tumours in mice ([2]; intratumoural, Table 2, FIGS. 5-7) | Significance (RTV2) [2] | Significance (RTV3) [2] | Growth delay (RTV2) [2] [days] | Growth delay (RTV3) [2] [days] | Mean time to RTV2 ([2]; intratumoural) [days] | Median time to RTV2 ([2]; intratumoural) [days] | Mean time to RTV3 ([2]; intratumoural) [days] | Median time to RTV3 ([2]; intratumoural) [days] | Annexin staining compared to HXR9 treated cells (PC3 cells [3]) | Annexin staining compared to untreated PC3 cells (PC3 cells [3]) | DUSP1 expression in PC3 tumours (DUSP1 protein) | PC3 2 hr IC50 change relative to HXR9 (PC3 cells [4]) [fold] | PC3 96 hr IC50 change relative to HXR9 (PC3 cells [4]) [fold] | IC50 (PC3 cells [4]; [5]) [µM] | IC50 (PC3 cells [4]; [6]) [µM]
WYKWMKKAARRRRRRRRR [HTL001, WYKWMKKAARRRRRRRRR] | significantly more effective than HXR9 | significantly higher | significant increase | significant growth retardation | p < 0.05 | p < 0.01 | 6.7 | 11.5 | 21.0 | 17.2 | 26.5 | 25.1 | significantly higher | significant increase | considerably increased | 2.23 | 3.91 | 13 | 11
WYPWMKKHHRRRRRRRRR [HXR9, WYPWMKKHHRRRRRRRRR, reference compound] |  |  | significant increase |  | p > 0.05 ns | p > 0.05 ns | 7.9 | 7.2 | 17.8 | 18.4 | 20.8 | 20.8 |  | significant increase |  | 1 | 1 | 29 | 43

Source: patent publication US10494412B2, “Peptides” (HOX THERAPEUTICS LIMITED, priority 2015, dated 2019)
